Taken from: PubChem BioAssay AID1508597 (Cure First, 2020)
Purpose: 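Survival screen with siRNA in ovarian cancer cells derived from patients, with or without rucaparib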 (primary screen). Cells: human ovarian carcinoma lines grown from tumours: OCI-P5x (papillary serous) and OCI-C5x (clear cell). Reagent: siRNA pool against human genes, 1.25 pmol siRNA per well. Duration: 72 h or 96 h, depending on the cell culture. Conditions: rucaparib 20 µM (about IC30) or vehicle, present until read-out. Measurement: 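Luminescent ATP-based viability assay read 72 or 96 h after transfection, depending on culture, given as normalised percent viability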. Direction: viability, normalised: higher = more viable cells remaining. Rule for the call: 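Active when normalised viability falls below 80 percent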. Meaning of the calls: active = viability under 80%; inactive = viability 80% or more.
This is an unselected part of about 2,100 reagents. 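Calls flag viability under 80% in either arm, not effects specific to rucaparib; the reference for percent is not stated.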 A number with no mark means an inactive call. No sequences are given here. Not stated in the record: the 100% reference.

| target gene | PubChem SID | rucaparib or vehicle | cell line | technical replicate | viability, normalised (%) |
| --- | --- | --- | --- | --- | --- |
| BMP2K (BMP2 inducible kinase) | SID405528563 | Rucaparib | OCI-C5x (clear cell) | 1 | 42.1 (active) |
| BMP2K (BMP2 inducible kinase) | SID405528563 | Rucaparib | OCI-C5x (clear cell) | 2 | 60.6 (active) |
| BMP2K (BMP2 inducible kinase) | SID405528563 | Rucaparib | OCI-C5x (clear cell) | 3 | 45.8 (active) |
| BMP2K (BMP2 inducible kinase) | SID405528563 | Rucaparib | OCI-P5x (serous) | 1 | 77.7 (active) |
| BMP2K (BMP2 inducible kinase) | SID405528563 | Rucaparib | OCI-P5x (serous) | 2 | 65.6 (active) |
| BMP2K (BMP2 inducible kinase) | SID405528563 | Rucaparib | OCI-P5x (serous) | 3 | 65.8 (active) |
| BMP2K (BMP2 inducible kinase) | SID405528563 | Vehicle | OCI-C5x (clear cell) | 1 | 67.1 (active) |
| BMP2K (BMP2 inducible kinase) | SID405528563 | Vehicle | OCI-C5x (clear cell) | 2 | 57 (active) |
| BMP2K (BMP2 inducible kinase) | SID405528563 | Vehicle | OCI-C5x (clear cell) | 3 | 57 (active) |
| BMP2K (BMP2 inducible kinase) | SID405528563 | Vehicle | OCI-P5x (serous) | 1 | 75.4 (active) |
| BMP2K (BMP2 inducible kinase) | SID405528563 | Vehicle | OCI-P5x (serous) | 2 | 49.9 (active) |
| BMP2K (BMP2 inducible kinase) | SID405528563 | Vehicle | OCI-P5x (serous) | 3 | 60.6 (active) |
| TDRD12 (tudor domain containing 12) | SID405526543 | Rucaparib | OCI-C5x (clear cell) | 1 | 53.2 (active) |
| TDRD12 (tudor domain containing 12) | SID405526543 | Rucaparib | OCI-C5x (clear cell) | 2 | 47.7 (active) |
| TDRD12 (tudor domain containing 12) | SID405526543 | Rucaparib | OCI-C5x (clear cell) | 3 | 40.3 (active) |
| TDRD12 (tudor domain containing 12) | SID405526543 | Rucaparib | OCI-P5x (serous) | 1 | 46.8 (active) |
| TDRD12 (tudor domain containing 12) | SID405526543 | Rucaparib | OCI-P5x (serous) | 2 | 52.6 (active) |
| TDRD12 (tudor domain containing 12) | SID405526543 | Rucaparib | OCI-P5x (serous) | 3 | 52.2 (active) |
| TDRD12 (tudor domain containing 12) | SID405526543 | Vehicle | OCI-C5x (clear cell) | 1 | 64.9 (active) |
| TDRD12 (tudor domain containing 12) | SID405526543 | Vehicle | OCI-C5x (clear cell) | 2 | 48.2 (active) |
| TDRD12 (tudor domain containing 12) | SID405526543 | Vehicle | OCI-C5x (clear cell) | 3 | 60.2 (active) |
| TDRD12 (tudor domain containing 12) | SID405526543 | Vehicle | OCI-P5x (serous) | 1 | 70 (active) |
| TDRD12 (tudor domain containing 12) | SID405526543 | Vehicle | OCI-P5x (serous) | 2 | 66.1 (active) |
| TDRD12 (tudor domain containing 12) | SID405526543 | Vehicle | OCI-P5x (serous) | 3 | 79.8 (active) |
| CHTOP (chromatin target of PRMT1) | SID405528121 | Rucaparib | OCI-C5x (clear cell) | 1 | 39.4 (active) |
| CHTOP (chromatin target of PRMT1) | SID405528121 | Rucaparib | OCI-C5x (clear cell) | 2 | 40.3 (active) |
| CHTOP (chromatin target of PRMT1) | SID405528121 | Rucaparib | OCI-C5x (clear cell) | 3 | 35.1 (active) |
| CHTOP (chromatin target of PRMT1) | SID405528121 | Rucaparib | OCI-P5x (serous) | 1 | 29.2 (active) |
| CHTOP (chromatin target of PRMT1) | SID405528121 | Rucaparib | OCI-P5x (serous) | 2 | 47.5 (active) |
| CHTOP (chromatin target of PRMT1) | SID405528121 | Rucaparib | OCI-P5x (serous) | 3 | 64.6 (active) |
| CHTOP (chromatin target of PRMT1) | SID405528121 | Vehicle | OCI-C5x (clear cell) | 1 | 33.4 (active) |
| CHTOP (chromatin target of PRMT1) | SID405528121 | Vehicle | OCI-C5x (clear cell) | 2 | 44.9 (active) |
| CHTOP (chromatin target of PRMT1) | SID405528121 | Vehicle | OCI-C5x (clear cell) | 3 | 38.3 (active) |
| CHTOP (chromatin target of PRMT1) | SID405528121 | Vehicle | OCI-P5x (serous) | 1 | 63.3 (active) |
| CHTOP (chromatin target of PRMT1) | SID405528121 | Vehicle | OCI-P5x (serous) | 2 | 68.3 (active) |
| CHTOP (chromatin target of PRMT1) | SID405528121 | Vehicle | OCI-P5x (serous) | 3 | 65.9 (active) |
| PHF7 (PHD finger protein 7) | SID405527157 | Rucaparib | OCI-C5x (clear cell) | 1 | 43.6 (active) |
| PHF7 (PHD finger protein 7) | SID405527157 | Rucaparib | OCI-C5x (clear cell) | 2 | 52.9 (active) |
| PHF7 (PHD finger protein 7) | SID405527157 | Rucaparib | OCI-C5x (clear cell) | 3 | 32.9 (active) |
| PHF7 (PHD finger protein 7) | SID405527157 | Rucaparib | OCI-P5x (serous) | 1 | 53.7 (active) |
| PHF7 (PHD finger protein 7) | SID405527157 | Rucaparib | OCI-P5x (serous) | 2 | 58 (active) |
| PHF7 (PHD finger protein 7) | SID405527157 | Rucaparib | OCI-P5x (serous) | 3 | 54.2 (active) |
| PHF7 (PHD finger protein 7) | SID405527157 | Vehicle | OCI-C5x (clear cell) | 1 | 33.9 (active) |
| PHF7 (PHD finger protein 7) | SID405527157 | Vehicle | OCI-C5x (clear cell) | 2 | 38.4 (active) |
| PHF7 (PHD finger protein 7) | SID405527157 | Vehicle | OCI-C5x (clear cell) | 3 | 33.1 (active) |
| PHF7 (PHD finger protein 7) | SID405527157 | Vehicle | OCI-P5x (serous) | 1 | 71.8 (active) |
| PHF7 (PHD finger protein 7) | SID405527157 | Vehicle | OCI-P5x (serous) | 2 | 53.5 (active) |
| PHF7 (PHD finger protein 7) | SID405527157 | Vehicle | OCI-P5x (serous) | 3 | 140 |
| AKT2 (AKT serine/threonine kinase 2) | SID405527406 | Rucaparib | OCI-C5x (clear cell) | 1 | 69.3 (active) |
| AKT2 (AKT serine/threonine kinase 2) | SID405527406 | Rucaparib | OCI-C5x (clear cell) | 2 | 64.7 (active) |
| AKT2 (AKT serine/threonine kinase 2) | SID405527406 | Rucaparib | OCI-C5x (clear cell) | 3 | 62.2 (active) |
| AKT2 (AKT serine/threonine kinase 2) | SID405527406 | Rucaparib | OCI-P5x (serous) | 1 | 92.8 |
| AKT2 (AKT serine/threonine kinase 2) | SID405527406 | Rucaparib | OCI-P5x (serous) | 2 | 97.1 |
| AKT2 (AKT serine/threonine kinase 2) | SID405527406 | Rucaparib | OCI-P5x (serous) | 3 | 86.4 |
| AKT2 (AKT serine/threonine kinase 2) | SID405527406 | Vehicle | OCI-C5x (clear cell) | 1 | 70.1 (active) |
| AKT2 (AKT serine/threonine kinase 2) | SID405527406 | Vehicle | OCI-C5x (clear cell) | 2 | 75.9 (active) |
| AKT2 (AKT serine/threonine kinase 2) | SID405527406 | Vehicle | OCI-C5x (clear cell) | 3 | 61 (active) |
| AKT2 (AKT serine/threonine kinase 2) | SID405527406 | Vehicle | OCI-P5x (serous) | 1 | 94.9 |
| AKT2 (AKT serine/threonine kinase 2) | SID405527406 | Vehicle | OCI-P5x (serous) | 2 | 90.8 |
| AKT2 (AKT serine/threonine kinase 2) | SID405527406 | Vehicle | OCI-P5x (serous) | 3 | 91.4 |
